Experimental data from article PMC10681733.
Results are given in words; binding and its absence hold for the method and conditions named. Binding seen in cells or lysates may run through a third protein. Some binding calls cover weakened binding; strength is not graded here.

The chains behind the UniProt entries cited, without tags or fusion partners.
UniProt Q13547: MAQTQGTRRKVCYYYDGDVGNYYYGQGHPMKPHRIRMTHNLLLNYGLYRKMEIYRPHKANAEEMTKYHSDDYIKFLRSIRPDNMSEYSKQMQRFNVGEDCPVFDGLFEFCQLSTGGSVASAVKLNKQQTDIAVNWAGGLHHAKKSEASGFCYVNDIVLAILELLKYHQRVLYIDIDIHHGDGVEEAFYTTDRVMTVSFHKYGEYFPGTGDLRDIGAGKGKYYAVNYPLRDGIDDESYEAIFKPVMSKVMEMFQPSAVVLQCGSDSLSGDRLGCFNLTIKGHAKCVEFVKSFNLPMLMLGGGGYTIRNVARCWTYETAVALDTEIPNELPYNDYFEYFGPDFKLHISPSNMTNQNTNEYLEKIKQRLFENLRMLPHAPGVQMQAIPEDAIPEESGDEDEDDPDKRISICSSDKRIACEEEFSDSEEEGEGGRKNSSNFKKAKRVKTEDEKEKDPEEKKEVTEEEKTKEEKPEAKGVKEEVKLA
UniProt O09106: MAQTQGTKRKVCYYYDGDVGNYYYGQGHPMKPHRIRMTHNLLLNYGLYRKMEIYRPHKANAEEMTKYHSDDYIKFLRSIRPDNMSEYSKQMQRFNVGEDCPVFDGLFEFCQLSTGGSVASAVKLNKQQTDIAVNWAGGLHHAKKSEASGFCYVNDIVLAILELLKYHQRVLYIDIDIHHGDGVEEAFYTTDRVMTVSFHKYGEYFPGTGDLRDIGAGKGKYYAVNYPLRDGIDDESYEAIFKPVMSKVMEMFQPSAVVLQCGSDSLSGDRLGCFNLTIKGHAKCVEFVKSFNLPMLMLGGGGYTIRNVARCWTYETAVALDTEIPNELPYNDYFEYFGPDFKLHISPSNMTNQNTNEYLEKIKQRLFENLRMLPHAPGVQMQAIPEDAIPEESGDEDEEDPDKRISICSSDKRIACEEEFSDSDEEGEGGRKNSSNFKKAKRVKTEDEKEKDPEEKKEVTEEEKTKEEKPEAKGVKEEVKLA
UniProt Q92769: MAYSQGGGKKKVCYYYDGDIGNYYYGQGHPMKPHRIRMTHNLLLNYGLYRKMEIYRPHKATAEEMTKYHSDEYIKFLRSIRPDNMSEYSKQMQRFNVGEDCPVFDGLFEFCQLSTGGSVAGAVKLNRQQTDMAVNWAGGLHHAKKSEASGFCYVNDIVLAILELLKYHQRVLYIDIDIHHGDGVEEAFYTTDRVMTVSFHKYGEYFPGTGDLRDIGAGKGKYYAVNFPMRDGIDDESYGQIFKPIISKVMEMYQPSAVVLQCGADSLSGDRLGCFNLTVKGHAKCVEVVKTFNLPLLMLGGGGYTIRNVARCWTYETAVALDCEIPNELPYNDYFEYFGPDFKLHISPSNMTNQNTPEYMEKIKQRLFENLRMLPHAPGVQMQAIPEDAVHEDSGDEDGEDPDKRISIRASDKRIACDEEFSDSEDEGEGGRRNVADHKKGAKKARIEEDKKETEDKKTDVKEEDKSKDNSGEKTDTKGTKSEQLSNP

Assays:
[1] = molecular target: T1, Genetic suppressor element 1 (GSE1) (human (endogenous in HAP1)) (UniProt Q14687); experiment: co-IP; GSE1-specific antibody IP from whole-cell lysates of transgenic HAP1 cells expressing FLAG-tagged HDAC1 or HDAC2 variants, Protein A/G Dynabeads, Hunt buffer; control anti-mouse IgG; western blot and deacetylase activity on beads
T1 sequence: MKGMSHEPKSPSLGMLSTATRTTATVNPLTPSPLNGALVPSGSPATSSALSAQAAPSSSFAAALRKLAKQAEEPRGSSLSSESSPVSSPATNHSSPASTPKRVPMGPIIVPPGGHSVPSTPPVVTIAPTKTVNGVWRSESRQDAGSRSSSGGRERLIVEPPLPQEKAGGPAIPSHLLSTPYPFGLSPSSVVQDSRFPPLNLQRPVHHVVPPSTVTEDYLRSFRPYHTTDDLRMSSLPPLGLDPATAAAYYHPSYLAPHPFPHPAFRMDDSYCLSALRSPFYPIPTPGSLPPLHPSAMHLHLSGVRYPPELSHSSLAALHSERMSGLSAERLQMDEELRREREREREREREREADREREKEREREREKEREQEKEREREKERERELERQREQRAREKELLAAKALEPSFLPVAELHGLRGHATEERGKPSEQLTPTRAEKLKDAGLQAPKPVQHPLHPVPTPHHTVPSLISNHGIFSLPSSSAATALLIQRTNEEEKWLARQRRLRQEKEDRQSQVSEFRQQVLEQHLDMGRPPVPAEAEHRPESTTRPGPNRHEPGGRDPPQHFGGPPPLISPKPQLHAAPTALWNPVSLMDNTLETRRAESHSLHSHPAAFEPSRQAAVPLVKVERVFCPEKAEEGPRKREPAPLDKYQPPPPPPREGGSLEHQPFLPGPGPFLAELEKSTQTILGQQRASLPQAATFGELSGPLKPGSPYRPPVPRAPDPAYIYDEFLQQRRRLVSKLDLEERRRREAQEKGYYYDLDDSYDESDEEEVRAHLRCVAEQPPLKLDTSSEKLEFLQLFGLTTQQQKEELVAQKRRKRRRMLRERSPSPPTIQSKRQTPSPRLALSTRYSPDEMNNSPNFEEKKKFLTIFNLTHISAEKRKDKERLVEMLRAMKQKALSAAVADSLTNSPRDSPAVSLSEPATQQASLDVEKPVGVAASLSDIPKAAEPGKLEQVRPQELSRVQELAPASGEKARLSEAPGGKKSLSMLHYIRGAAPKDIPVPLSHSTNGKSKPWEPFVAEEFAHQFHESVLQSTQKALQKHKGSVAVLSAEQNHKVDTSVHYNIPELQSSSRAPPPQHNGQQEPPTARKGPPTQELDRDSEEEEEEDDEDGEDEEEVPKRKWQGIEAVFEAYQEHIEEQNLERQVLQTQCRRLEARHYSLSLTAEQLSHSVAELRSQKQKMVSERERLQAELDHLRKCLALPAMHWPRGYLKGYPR

[2] = molecular target: HDAC1 (endogenous, human) (human (endogenous in HAP1)) (UniProt Q13547); experiment: co-IP; co-IP/western blot of HDAC1-GSE1 from whole-cell lysates of HAP1, MEFs and murine Th1 T-cells; HDAC1 KO HAP1 cells as negative control; precipitating antibody not told in the legend
[3] = molecular target: T2, USP22 (human (endogenous in HAP1)) (UniProt Q9UPT9); experiment: co-IP; endogenous USP22 immunoprecipitated (USP22 antibody, Dynabeads, Hunt buffer) from whole-cell lysates of HAP1 WT cells, basal and etoposide treated; also HDAC1 KO, 53BP1 KO and trichostatin A treated cells; western blot
T2 sequence: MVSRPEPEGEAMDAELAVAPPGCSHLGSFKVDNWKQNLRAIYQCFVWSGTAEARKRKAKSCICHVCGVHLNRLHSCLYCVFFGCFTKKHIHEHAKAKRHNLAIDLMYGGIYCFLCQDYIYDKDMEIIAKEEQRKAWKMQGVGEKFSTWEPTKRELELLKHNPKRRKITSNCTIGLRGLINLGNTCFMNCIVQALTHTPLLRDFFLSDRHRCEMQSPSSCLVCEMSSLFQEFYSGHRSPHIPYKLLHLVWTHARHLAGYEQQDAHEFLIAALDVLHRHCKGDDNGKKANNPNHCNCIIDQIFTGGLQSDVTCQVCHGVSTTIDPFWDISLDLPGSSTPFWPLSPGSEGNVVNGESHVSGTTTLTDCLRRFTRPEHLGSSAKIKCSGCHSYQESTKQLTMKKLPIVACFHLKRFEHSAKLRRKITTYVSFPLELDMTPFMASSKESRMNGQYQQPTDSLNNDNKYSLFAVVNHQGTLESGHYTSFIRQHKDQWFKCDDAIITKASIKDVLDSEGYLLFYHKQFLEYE

[4] = molecular target: HDAC1 (mouse) (mouse (endogenous in MEFs and murine Th1 T-cells)) (UniProt O09106); experiment: co-IP; co-IP/western blot of HDAC1-GSE1 from whole-cell lysates of HAP1, MEFs and murine Th1 T-cells; HDAC1 KO HAP1 cells as negative control; precipitating antibody not told in the legend

Q: For “C-terminally FLAG-tagged wildtype HDAC1 (from UniProt Q13547 1-482)”, which binding [1] is on record?
A: Its binding is “binds”.

Q: How did the binding [1] turn out when “C-terminally FLAG-tagged wildtype HDAC2 (from UniProt Q92769 1-488)” was run?
A: The binding was “binds”.

B1: Genetic suppressor element 1 (GSE1) (protein, UniProt Q14687 1-1217)
chain: T1 sequence
Q: With B1 as the molecule, how does the binding [2] read?
A: Its binding is “binds”.

Q: What about the binding [3] of the same molecule?
A: Its binding is “binds”.

B2: GSE1 (mouse) (protein, UniProt Q3U3C9 1-1213)
chain: MKGMSHEPKSPSIGMLSTATRTTATVNPLTPSPLNGALVPTGSPATSSTLSAQAAPSSSFAAALRKLAKQAEEPRGSSLSSESSPVSSPATNHSSPASTPKRVPMGPIIVPPGGHSVPSTPPVVTIAPTKTVNGVWRSESRQDSGSRGSSSGRERLLVEPPLAQEKAAGPAIPSHLLSTPYPFGLSPGSVVQDSRFQPLNLQRPVHHVVPPSTVTEDYLRSFRPYHTAEDLRMSSLPPLGLDPATAAAYYHPSYLAPHPFPHPAFRMDDSYCLSALRSPFYPIPTPGSLPPLHPSAMHLHLSGVRYPPELSHSSLAALHSERMSSLSAERLQMDEELRREREREREREREADREREKEREREQREKEREKELEREREKERERELERQREQRAREKELLAAKALEPTTFLPVAELHGLRGHSTEERPKPSEQLTPTRAEKLKDVGLQAPKPVQHPLHPVPAPHHTVPSLISSHGIFSLPGSSATTALLIQRTNEEEKWLARQRRLRQEKEDRQSQVSEFRQQVLEQHLDLGRPLVPTEAEHRPESTRPGTNRHEQGSREPPQHFGGPPPLISPKPQQHTVPTALWNPVSLMDNALETRRAESHSLHSHPTAFEPSRQAAVPLVKVERVYCSEKAEEPRKREATPLDKYQPPPPPPPPREAGSLEPQTFPHGPGPFLTELEKSTQTILGQQRPSLSQATSFGELSGPLKPGSPYCHPTARGPDPAYIYDEFLQQRRKLVSKLDLEERRRREAQEKGYYYDLDDSYDESDEEEVRAHLRCVAEQPPLKLDTSSEKLEFLQLFGLTTQQQKEELVAQKRRKRRRMLRERSPSPPAVQCKRQTPSPRLALSTRYSPDEMNNSPNFEEKRKFLTFFNLTHISAEKRKDKERLVEMLRAMKQRALSAADSVTNSSRDSPPVSLSEPATQPAPLETDQPVGVPASLSDVPKTTETGRLEQLRPQELLRVQEPAPPSGEKARLSEAPGGKKSLSMLHYLRGAAPKDIPVPLSHSINGKSKPWEPFVAEEFAHQFHESVLQSTQKALQKHKGNSALLSAEQSHKVDTAIHYNIPELQSSSRVPLPQHNGQQEPPMGRKGPPMQEADQDSEEDSEEDSEEEAEEAPRRQWQGIEAIFEAYQEHIEEQNLERQVLQTQCRRLEAQNYSLSLTAEQLSHSMAELRSQKQKMVSERERLQAELDHLRKCLALPTMHWPRGYFKGYPR
Q: With B2 as the molecule, how does the binding [4] read?
A: The binding was “binds”.
